# Hit rate of the full screen: of about 330,000 compounds, about 7,700 (2.3%) were called active. This list was built around the results that the source calls inconclusive (neither active nor inactive); the mix of calls is not that of the screen. The call rests on the fitted dose curve; in most records, active means well fitted inhibition curve with a large enough effect; inconclusive means small, poorly fitted or top-dose-only effect, or effect the other way; inactive means flat fitted curve, though single readings scatter. Potencies of inconclusive entries are doubtful fits and often do not repeat.
# Assay: qHTS screen for small molecules that inhibit ELG1-dependent DNA repair in human embryonic kidney (HEK293T) cells expressing luciferase-tagged ELG1; further: nearly all actives have a fitted effect of over 55% in size
# Conditions: HEK293T ELG1-luciferase reporter, luminescence, 16 h, DNA damage induced by 5-fluorouridine; activity change, negative = inhibition: at 46.1 µM (top of the series)
# Procedure, shortened: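 Luminescence from the luciferase reporter, measured 30 min after ONE-Glo reagent at room temperature, was the read-out. Beforehand, 2,000 cells per well were exposed for 16 hr at 37 °C to 5-fluorouridine together with compound or vehicle.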
# On the % scale 0 is the no-effect control and ±100 the full control effect; potency means the concentration at half of the fitted maximal effect.
SMILES,Potency,"activity change, negative = inhibition"
O=C(COC(=O)c1nc(Cl)ccc1Cl)c1ccc(Cl)s1,inactive,
O=C(COC(=O)Cc1ccc(Br)cc1)NC1CCCCC1,inactive,
O=C(O)CC(NC(=O)Cc1ccc(Cl)cc1)c1ccco1 (stereo not drawn),"inconclusive: 25.9 µM [inhibitor, single point]",
CC(C)NC(=O)CC(=O)N/N=C/c1ccc(F)cc1,inactive,
Cc1cc(NC(=O)c2ccc(NC(=O)C3CCCO3)cc2)ccc1Br (stereo not drawn),inactive,
Cc1ccc(C)c(NC(=O)CN(C)C(=O)CSC(C)C(=O)Nc2cc(C)on2)c1 (stereo not drawn),inactive,
CCCOC(=O)c1ccc(NC(=O)C(CC)CC)cc1,"inconclusive: 23.1 µM [activator, partial curve]",
COc1ccccc1NC(=O)Cn1nnc2sc3c(c2c1=O)CC(C)(C)OC3,active: 20.6 µM,
O=C(Nc1ccccn1)c1nc(-c2ccccc2)n(-c2ccccc2)n1,"inconclusive: 29.1 µM [inhibitor, single point]",
O=C(NCCN1CCOCC1)c1ccc2c(c1)ncn2C1CCCC1,"inconclusive: 18.4 µM [activator, partial curve, poor fit]",
COc1ccc(N(CC(=O)NCCC(C)C)C(=O)c2snc(C(=O)NC3CCCCC3)c2N)c(OC)c1,inactive,
CCOC(=O)c1ccc(NC(=O)c2nc[nH]c2C(=O)N(C)Cc2ccccc2)cc1,inactive,
CCOc1ccc(C(=O)NCC(=O)N2CCCC2)cc1,"inconclusive: 29.1 µM [activator, single point]",
Cc1ccc(C(=O)NC2CCCCCC2)o1,"inconclusive: 25.9 µM [activator, single point]",
COc1ccc(Nc2ncc(C(=O)N3CCN(c4ccc(F)cc4)CC3)c3ccccc23)cc1,active: 20.6 µM,
Cc1ccc(Nc2c(-c3ccco3)nc3ccccn23)cc1,"inconclusive: 25.9 µM [activator, partial curve]",
CCc1ccc(OCCn2cccn2)cc1,"inconclusive: 20.6 µM [activator, partial curve]",
Cc1ccsc1C(=O)OCC(=O)c1cc2ccccc2o1,"inconclusive: 29.1 µM [activator, single point]",
CCCc1ccc(OC(=O)c2ccc(O)cc2Cl)cc1,"inconclusive: 2.31 µM [activator, partial curve]",
COc1ccc(OC)c(/C=N/Nc2nncn2/N=C/c2cc(OC)ccc2OC)c1,"inconclusive: 23.1 µM [inhibitor, partial curve]",
COc1ccc(-c2c(-c3ccccc3OC)oc3ccccc23)cc1F,"inconclusive: 13 µM [activator, partial curve, poor fit]",
CCc1cc2c(SC(C)C(=O)NC3CCCC3)ncnc2s1 (stereo not drawn),"inconclusive: 32.6 µM [inhibitor, partial curve, poor fit]",
O=C(CCC(=O)Nc1ccccc1Cl)NNC(=O)C1CCCCC1,"inconclusive: 18.3 µM [activator, single point]",
Cc1cc(C)c2sc(NC(=O)C3=COCCO3)nc2c1,"inconclusive: 2.59 µM [activator, partial curve]",
CCOc1ccc(NC(=O)[C@@H](NC(=O)OCc2ccccc2)[C@@H](C)CC)cc1,"inconclusive: 18.4 µM [activator, single point]",

# Whole records as entered above:
# O=C(O)CC(NC(=O)Cc1ccc(Cl)cc1)c1ccco1 (stereo not drawn) as listed: Potency: inconclusive: 25.9 µM [inhibitor, single point]
# Cc1ccc(C(=O)NC2CCCCCC2)o1 as listed: Potency: inconclusive: 25.9 µM [activator, single point]

# Going on with the list.

SMILES,Potency,"activity change, negative = inhibition"
CCN(CC(=O)NCc1ccc(Cl)cc1)C(=O)c1ccc(S(=O)(=O)NCc2ccco2)cc1,inactive,
CCc1nc2cc3sc(CC)nc3cc2s1,"inconclusive: 14.6 µM [activator, partial curve]",
CC(C)(C)NC(=O)NC(=O)CSc1ncccn1,inactive,
CC(C)CC(=O)N1CCN(S(=O)(=O)c2ccc(Cl)cc2)CC1,inactive,
CC(C)N(C(=O)[C@H]1C[C@H](CC(=O)NCc2ccco2)C(=O)N2CCc3c([nH]c4cc(CCC(=O)N(C)C)ccc34)[C@]12C)C(C)C,"inconclusive: 29.1 µM [activator, single point]",
COC(=O)c1[nH]c(=O)c2ccccc2c1O,inactive,
COc1ccc(C(C(=O)NC2CCCC2)N(C(=O)c2snc(-c3ccc(F)cc3)c2N)c2cccc(F)c2)cc1 (stereo not drawn),inactive,
Cc1ccc(-c2cc(-c3ccc(F)cc3)c(C#N)c(N)n2)o1,inactive,
CCC(=O)Nc1ccc(NC(=O)c2ccccc2Cl)nc1,"inconclusive: 20.6 µM [activator, partial curve]",
Cc1ccc(-c2noc(CCC(=O)NCCN3CCc4ccccc4C3)n2)cc1,inactive,
CC1(C)CC(=O)c2cnc(NC(=O)c3ccco3)nc2C1,"inconclusive: 23.1 µM [activator, single point]",
Cc1ccnc(Nc2nc(-c3ccc(O)cc3)cs2)c1,"inconclusive: 2.51 µM [activator, full curve, poor fit]",
COc1ccc(-c2c3c(=O)n(C)c(=O)n(C)c3cn2-c2cc(OC)ccc2OC)cc1,"inconclusive: 16.4 µM [inhibitor, single point]",
O=S(=O)(c1ccc(C(F)(F)F)cc1)N1CCN(CCc2ccccc2)CC1,,inconclusive: 25.4% [activator]
O=C(Nc1nc2ccccc2[nH]1)c1ccc(OC(F)F)cc1,"inconclusive: 0.411 µM [activator, full curve]",
O=C(O)CC/C(=C\c1cc([N+](=O)[O-])ccc1Cl)c1nc2ccccc2s1,inactive,
CC(=O)/C(C#N)=C1\NC(=O)C(Cc2cc(Cl)ccc2Cl)S1 (stereo not drawn),inactive,
CCc1ccc([C@@H]2CC=C(C(=O)O)[C@H](c3ccc(F)cc3)N2S(=O)(=O)c2ccc(C)cc2)cc1,inactive,
O=C(O)c1nc(-c2ccccc2)n(-c2cccc(C(F)(F)F)c2)n1,inactive,
CC(C)Oc1ccc(C(=O)NCC(=O)N2CCN(S(=O)(=O)/C=C/c3ccccc3)CC2)cc1,"inconclusive: 23.1 µM [inhibitor, partial curve, poor fit]",
CCN(c1ccccc1)S(=O)(=O)c1ccc(Cl)c(NC(=O)CN2CCN(C)CC2)c1,"inconclusive: 0.73 µM [inhibitor, partial curve, poor fit]",
CCOC(=O)C1CCN(C(=O)Nc2cc(Cl)cc(Cl)c2)CC1,inactive,
COc1ccc(CNC(=O)CN2C(=O)NC(c3ccccc3)(c3ccccc3)C2=O)cc1,inactive,
Cc1c(O[C@@H]2O[C@H](CO)[C@@H](O)[C@H](O)[C@H]2O)c(CO)c(O[C@@H]2O[C@H](CO)[C@@H](O)[C@H](O)[C@H]2O)c2c1O[C@@H](c1ccccc1)C[C@@H]2O,"inconclusive: 23.1 µM [activator, single point]",
CCn1cc(C(=O)O)c(=O)c2cc(F)c(N3CCN(C(=S)Nc4ccc(OC)cc4)CC3)cc21,inactive,

# By substructure, the entries above containing an aryl thioether with sulfur outside any ring (2)
SMILES,Potency,"activity change, negative = inhibition"
CCc1cc2c(SC(C)C(=O)NC3CCCC3)ncnc2s1 (stereo not drawn),"inconclusive: 32.6 µM [inhibitor, partial curve, poor fit]",
CC(C)(C)NC(=O)NC(=O)CSc1ncccn1,inactive,

# (next part)

SMILES,Potency,"activity change, negative = inhibition"
O=C(COc1ccc(Cl)cc1)Nc1nnc(-c2ccco2)o1,inactive,
O=C(Nc1ccc(F)c(Cl)c1)C1CCCN(C2=NS(=O)(=O)c3ccccc32)C1 (stereo not drawn),inactive,
O=C(Oc1cc(=O)oc2ccccc12)c1ccccc1,inactive,
Cc1cccc(NC(=O)CCCc2ccccc2)c1,"inconclusive: 20.6 µM [activator, partial curve]",
COc1ccccc1CCNS(=O)(=O)c1cc2c3c(c1)C(C)C(=O)N3CCC2 (stereo not drawn),"inconclusive: 18.3 µM [inhibitor, partial curve]",
CCOC(=O)C1(Cc2cccc(OC)c2)CCCN(Cc2c(C)nn(C(C)C)c2C)C1 (stereo not drawn),"inconclusive: 29.1 µM [inhibitor, single point]",
NS(=O)(=O)c1ccc(NC(=S)NC(=O)c2ccc(-c3ccccc3)cc2)cc1,"inconclusive: 25.9 µM [activator, single point]",
O=C(COc1ccc2ccccc2c1Br)Nc1ccncc1,inactive,
CCN1CCN(c2cc(C)c3cc(NC(=S)N4CCN(c5ccccc5)CC4)ccc3n2)CC1,"inconclusive: 29.1 µM [activator, single point]",
CCCc1cc(C(=O)Nc2ccc(C(=O)c3ccccc3)cc2)n(C)n1,"inconclusive: 18.3 µM [inhibitor, single point]",
Cc1ccc(C(=O)Cc2nc3ccccc3[nH]2)cc1,"inconclusive: 7.3 µM [activator, partial curve]",
COc1cccc(NC(=O)CN(C)C(=O)c2sc3cc(Cl)ccc3c2Cl)c1,"inconclusive: 29.1 µM [inhibitor, partial curve, poor fit]",
Cn1cc(C(=O)NCC(=O)Nc2ccccc2Br)cn1,"inconclusive: 16.4 µM [activator, partial curve, poor fit]",
CCOC(=O)C1CCN(C(=O)c2ccc(S(=O)(=O)Nc3ccccc3Cl)cc2)CC1,inactive,
COc1ccccc1/C=N/Nc1cc(N(C)C)nc(N(C)C)n1,"inconclusive: 29.1 µM [inhibitor, single point]",
CCCCNC(=S)NNC(=O)CCn1cc(C)cn1,inactive,
CC1(C)Cc2c(sc3c2c(=N)n(Cc2ccco2)c(=O)n3Cc2ccc(F)cc2)CO1,active: 18.4 µM,
O=C(NC(=S)NC1CCCCC1)c1ccccc1,"inconclusive: 20.6 µM [activator, partial curve]",
N#Cc1ccc(CN2CCN(C(=O)CCNS(=O)(=O)c3ccc(F)c(Cl)c3)CC2)cc1,inactive,
CCC(C(=O)OCC(=O)NC(=O)NC(C)(C)C)c1ccccc1 (stereo not drawn),inactive,
Fc1ccc(-c2n[nH]c(=S)n2Cc2ccccc2)cc1,inactive,
Cc1onc(-c2ccccc2Cl)c1C(=O)Nc1ccc(Cl)cn1,"inconclusive: 29.1 µM [inhibitor, single point]",
COc1ccccc1C(=O)Nc1cc2cc(Cl)ccc2oc1=O,"inconclusive: 13 µM [activator, partial curve]",

# — PubChem BioAssay AID504467 (National Center for Advancing Translational Sciences (NCATS), 2011)
